{"source": "patent US9612237B2", "about": "“Ritalinic acid immunoassay” (Randox Laboratories Limited, priority 2013, dated 2017)", "test_system": "antisera generated in response to immunogen of Example 11", "assay": "Competitive chemiluminescent biochip immunoassay, antisera raised against immunogen of Example 11, conjugate of Example 12", "type": "binding, sheep", "data": [{"smiles": "CN1CC[C@]23c4c5ccc(O)c4O[C@H]2[C@@H](O)C=C[C@H]3[C@H]1C5.O=S(=O)(O)O", "note": "[morphine sulphate]", "values": [{"measurement": "Concentration exhibiting no cross-reactivity", "result": 10, "unit": "µg/mL"}]}]}
